Data on 68 sequences can be found in PubChem BioAssay AID1508600 (Functional Genomics Laboratory (NCATS/FGL), 2020).

Hit rate of the full screen: of about 53,000 sequences, about 3,700 (7%) were called active.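 The calls were made as follows: active = gene knockdowns whose robust z-score for IL-1 alpha signal is at least 2 or at most -2, so actives lie on both sides; inactive = the rest.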 The list shows a part of the results.

A short description of the assay: Components of the Cytosolic LPS Sensing Pathway: Gene Identification via Genome-wide siRNA Screen.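 Also: robust z of the log signal after scaling to non-targeting control siRNA wells of the plate.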 As to conditions: RAW264.7 macrophages, IL-1a HTRF, actives lie on both sides, screened at 100 nM (by protocol), cells primed 5 h with Pam3CSK4 first. The procedure, abridged:
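Supernatant IL-1a by HTRF from RAW264.7 cells primed with Pam3CSK4 (5 hours) and transfected with LipidA (24 hour) after 48h siRNA knockdown at 100 nM; cell viability checked with CellTiter-Glo.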
A general note: TR-FRET usually uses a lanthanide donor and a delayed reading to cut background.
As for CCAAAUUUGGCAUUUCUAATT against Slc31a1, the z-score is inactive: -0.0725.

Regarding GGCAAGAACAUUUUAUCAATT against Adamts12, the z-score was inactive: -0.0546.

As for CUAGCUUGUGCCGUUCUGATT against Cox14, the z-score was inactive: -0.657.

Take CCGUAGGAGAAGAAAUCCGTT against Grap2: the z-score is inactive: 0.686.

For the sequence GGUUUACUCAGUUAACAGATT against Tgoln1, the z-score is inactive: 0.536.

As for GGCUUUUCACACGAUAGGGTT against Rab9b, the z-score was inactive: -1.4.

In the case of CCACCGACUGUGACAUUGUTT against Cngb1, the z-score was inactive: 0.86.

Take GGCUUUCAACUCUCAACAGTT against Smg7: the z-score is inactive: -1.59.

As for GGUUGUAUUGGAUAUCAAGTT against Ceacam2, the z-score is inactive: 0.953.

With GCACCUCCUUAUGUGUCAUTT against Chrm2, the z-score was inactive: 0.729.

For the sequence GGCAGAGUAUGAGUUUGACTT against Camk1, the z-score is inactive: 0.699.

Take GGAGAAGACACAGAGAACCTT against Pkd2l1: the z-score is inactive: 0.645.

Turning to GGGCUGAUGAGCAAAGCAUTT against Setd4, the z-score was inactive: -1.01.

In the case of GGAAUUCUUAAGAAGUUACTT against Dsg2, the z-score is inactive: 0.857.

On to GGAACUGAGAUCAUUCUGCTT against Olfr140, for which the z-score was inactive: 0.307.

Consider GCUUUUCGUUCUUAUACAUTT against Mnx1, for which the z-score was inactive: 1.13.

For the sequence GGUGGUGGCAGAAAUGAAUTT against Dpep2, the z-score is inactive: -0.946.

With GGUUAAAUCGAUUUUGCAUTT against Acbd5, the z-score was inactive: -0.185.

For the sequence GGUCAACAGAAUUGAUUCUTT against Cutal, the z-score is inactive: -0.492.

Turning to GCCACUCCUAUGAGUGUUATT against Cdk18, the z-score is inactive: 0.236.

With GGCAACAGCAGCUUAUGCCTT against Map3k11, the z-score is inactive: 0.122.

In the case of GGAGCUUUUUUAGUGAUCUTT against Zbtb37, the z-score was inactive: -0.891.

For the sequence GGAGAUUCCCGUGGUUAUUTT against Glt8d1, the z-score is inactive: 0.909.

As to GGACUUGAAAAUUGUUCUUTT against Cers5, the z-score was inactive: 1.31.

With GCGUGUUCGGUUUACCAAGTT against Ago1, the z-score was inactive: 1.35.

Turning to GGAAUUUUGCCACUAAGAUTT against Pfkm, the z-score was inactive: -1.21.

Take GGAGCCCAAAAAGAAGAAATT against Mrpl48: the z-score was inactive: 0.43.

Turning to GGAACACUCAGGUCUUUCUTT against Olfr450, the z-score is inactive: -1.48.

For the sequence GGACUCUGCCUUUGACCCATT against Myl4, the z-score was inactive: -0.529.

For GCGUAUAAGCUCAGUAGACTT against Phlpp1, the z-score was inactive: 1.06.

In the case of GCCCUUGGGAUAAUUAUUGTT against Tmprss11b, the z-score was inactive: 0.576.

Regarding CCUAAAGUCACAUCUAAGATT against Pum3, the z-score is inactive: 1.06.

For GCAAAUCCCAUGAACAGCUTT against Nvl, the z-score was active: -2.55.

Take GGUGGUGAUUCAUCUGUGCTT against Tas2r135: the z-score is inactive: -0.836.

Turning to GGAUGAAACUAUUCAGCACTT against Chml, the z-score was inactive: -0.635.

For the sequence GCAUGACAGAGUUAUUCAUTT against Olfr474, the z-score is inactive: -0.59.

On to GGAACUGAAACAGUUGGAATT against Tmod2, for which the z-score was inactive: -0.00247.

Take CGACUAUGGUUUAAUCAUCTT against Atp11a: the z-score is inactive: -1.03.

In the case of GCGCAGAGGGAUCAUAGAGTT against Heyl, the z-score is inactive: 0.326.

Turning to CCGAGCAAGGCAUAGAAAATT against Tex24, the z-score was inactive: -1.12.

For GGACGUAUCUUCUUUAAGATT against Immp1l, the z-score is inactive: 0.45.

As for GGCACCAUCUACGACUAUGTT against Gpx5, the z-score is inactive: -0.649.

For CCCAGGAUAUAAUUCAACUTT against R3hdm2, the z-score is inactive: -0.218.

With GGUGAAAAUCAUCCAGCGATT against Iqcj, the z-score was inactive: 0.427.

With GCUUUCAUUAAGUCAGAUCTT against Flvcr2, the z-score is inactive: 1.16.

With GGUGAUUGCUGAAGACGAGTT against Fbxw8, the z-score was inactive: -0.172.

For the sequence CCAUAUGGCUUGUGGCAGATT against Scn1b, the z-score is inactive: -0.245.

Take GCUAGGUGCUGCUACGAAATT against Tex13c3: the z-score was inactive: -0.0824.

As to GGAGCUGUAAAGGCUACAATT against Sulf2, the z-score was active: 4.14.

On to GCAGCUCCUAAGAAGAUAATT against Samsn1, for which the z-score is inactive: -1.77.

On to GGCCAAACAAGACCCAUCUTT against Ppil2, for which the z-score was inactive: -0.621.

With CCCUACGUGAGACAUUUGATT against Ankrd53, the z-score was inactive: -1.23.

For the sequence GUCUGUAUUCCUAGAUUCCTT against Olfr794, the z-score is inactive: -0.0923.

For GCAAAUUAAGAUGUGCUGATT against Esco2, the z-score is inactive: -0.749.

Turning to GCUAAGGUACAUUUGUAGATT against Cebpd, the z-score was inactive: 0.218.

As for GCCAAGAUGGUAUUUCACATT against Defb20, the z-score is inactive: -1.39.

As for GCUCCUCCUAUAUGUGAAUTT against Cr2, the z-score was inactive: 0.535.

For GGUGCUGACUCCGACUAAATT against Nhsl1, the z-score is inactive: 1.2.

For CCCAGUAAAUAAGAGUACATT against Treml1, the z-score was inactive: -1.33.

For the sequence GGGUAGAUAACAUCUGGACTT against Dgat2, the z-score is inactive: 0.798.

For the sequence CCUAUGAUUCAGUGUAUCUTT against Hdac6, the z-score was inactive: -0.654.

As to CCCAGUUUCUCUAGGAAUATT against H2ax, the z-score was inactive: 0.144.

On to CCAUCAAUCAUCAUCGCCUTT against Slc27a2, for which the z-score was inactive: -1.64.

As for CGAAAGCACACACGUAGAATT against Erdr1, the z-score is inactive: 0.391.

Consider GGUUCACAAUGGAUUAUGATT against Lrrc25, for which the z-score was inactive: -1.68.

GGCCUGAGACUCUCACAGATT against Taf5l: the z-score was inactive: 0.0833.

On to CGACCUGGAUAGGUUGUUUTT against Ckap4, for which the z-score was inactive: 0.443.

With CCGGUUUUAUGCAGUGUGUTT against Taar3, the z-score was inactive: 0.495.
